Data as given in PMC5094991.
Results are given in words; binding and its absence hold for the method and conditions named. In cells and extracts the contact can be indirect. Some results given as binding are weak or reduced against the parent protein; the word gives no strength.

Chains of the proteins cited; added tags and fusions are not shown. Residues count along the entry.
UniProt Q03135: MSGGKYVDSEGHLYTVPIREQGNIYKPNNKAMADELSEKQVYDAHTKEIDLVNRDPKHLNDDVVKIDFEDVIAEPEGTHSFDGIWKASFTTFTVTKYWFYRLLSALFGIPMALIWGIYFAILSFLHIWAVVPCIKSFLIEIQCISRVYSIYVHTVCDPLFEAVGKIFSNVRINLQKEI
UniProt Q13586, residues 23-685: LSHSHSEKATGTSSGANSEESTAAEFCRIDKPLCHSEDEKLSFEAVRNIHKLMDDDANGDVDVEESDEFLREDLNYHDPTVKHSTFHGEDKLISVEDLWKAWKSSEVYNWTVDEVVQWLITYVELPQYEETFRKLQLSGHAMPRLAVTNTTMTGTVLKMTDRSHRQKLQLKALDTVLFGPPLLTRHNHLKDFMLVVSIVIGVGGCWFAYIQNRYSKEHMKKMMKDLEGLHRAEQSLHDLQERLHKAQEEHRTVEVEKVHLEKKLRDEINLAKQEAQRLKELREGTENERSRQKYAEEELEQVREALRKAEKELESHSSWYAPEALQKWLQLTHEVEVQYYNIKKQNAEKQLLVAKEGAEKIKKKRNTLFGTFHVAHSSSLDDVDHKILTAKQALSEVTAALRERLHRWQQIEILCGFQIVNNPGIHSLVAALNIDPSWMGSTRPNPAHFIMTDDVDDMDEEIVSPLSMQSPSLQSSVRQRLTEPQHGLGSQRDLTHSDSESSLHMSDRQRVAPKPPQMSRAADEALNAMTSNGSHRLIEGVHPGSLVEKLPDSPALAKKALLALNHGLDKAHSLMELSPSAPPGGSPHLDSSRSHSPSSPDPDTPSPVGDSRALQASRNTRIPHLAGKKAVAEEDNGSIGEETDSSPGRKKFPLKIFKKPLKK
UniProt Q96D31: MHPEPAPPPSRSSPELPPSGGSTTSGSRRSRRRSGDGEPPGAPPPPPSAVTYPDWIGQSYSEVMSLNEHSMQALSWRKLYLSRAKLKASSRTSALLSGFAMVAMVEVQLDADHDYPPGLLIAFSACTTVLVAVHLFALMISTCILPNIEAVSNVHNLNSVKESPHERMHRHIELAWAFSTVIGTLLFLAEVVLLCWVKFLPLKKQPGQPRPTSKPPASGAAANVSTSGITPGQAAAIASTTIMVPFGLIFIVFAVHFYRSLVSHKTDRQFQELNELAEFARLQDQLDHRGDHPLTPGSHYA
UniProt P48995: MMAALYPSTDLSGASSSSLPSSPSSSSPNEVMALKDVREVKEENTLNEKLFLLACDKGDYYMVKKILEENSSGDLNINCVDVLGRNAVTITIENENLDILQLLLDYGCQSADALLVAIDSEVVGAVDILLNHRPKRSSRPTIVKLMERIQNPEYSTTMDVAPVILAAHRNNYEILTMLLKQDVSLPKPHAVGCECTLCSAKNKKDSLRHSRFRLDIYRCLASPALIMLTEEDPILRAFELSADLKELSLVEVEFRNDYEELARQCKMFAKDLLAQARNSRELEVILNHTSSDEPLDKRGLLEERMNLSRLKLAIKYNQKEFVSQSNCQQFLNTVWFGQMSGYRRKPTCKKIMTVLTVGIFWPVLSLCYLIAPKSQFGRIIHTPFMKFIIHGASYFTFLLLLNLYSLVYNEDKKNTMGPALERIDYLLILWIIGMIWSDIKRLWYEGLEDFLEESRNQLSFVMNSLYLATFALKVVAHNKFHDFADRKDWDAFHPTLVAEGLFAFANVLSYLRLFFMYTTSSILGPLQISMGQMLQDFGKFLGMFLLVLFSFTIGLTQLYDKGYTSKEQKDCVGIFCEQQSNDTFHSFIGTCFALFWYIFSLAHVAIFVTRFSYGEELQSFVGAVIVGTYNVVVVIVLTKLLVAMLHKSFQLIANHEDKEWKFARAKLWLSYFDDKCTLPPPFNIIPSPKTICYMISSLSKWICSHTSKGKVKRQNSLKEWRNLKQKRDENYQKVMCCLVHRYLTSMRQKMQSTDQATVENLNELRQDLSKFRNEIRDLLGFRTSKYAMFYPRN

Legend:
[1] = biological target: caveolin-1 (human (endogenous in HCT-116)) (UniProt Q03135); experiment: co-IP; IP of caveolin-1 (antibody for the IP not told); 500 ug HCT-116 lysate in NET buffer; cells after Ca2+ store depletion by Tg; immunoblot
[2] = biological target: caveolin-1 (human (endogenous in HCT-116)) (UniProt Q03135); experiment: condition: only control conditions, before Ca2+ store depletion by Tg; co-IP; IP of caveolin-1 (antibody for the IP not told); 500 ug HCT-116 lysate in NET buffer; cells in control conditions, before Ca2+ store depletion (no Tg); immunoblot
[3] = biological target: STIM1 (human (endogenous in HCT-116)) (UniProt Q13586); experiment: condition: only control conditions, before Ca2+ store depletion by Tg; co-IP; IP with anti-STIM1 (sc-68897), protein A-sepharose; 500 ug HCT-116 lysate in NET buffer (50 mM Tris-HCl pH 7.4, 150 mM NaCl, 5 mM EDTA, 0.05% NP-40), overnight at 4 C; cells in control conditions, before Ca2+ store depletion (no Tg); immunoblot
[4] = biological target: STIM1 (human (endogenous in HCT-116)) (UniProt Q13586); experiment: co-IP; IP with anti-STIM1 (sc-68897), protein A-sepharose; 500 ug HCT-116 lysate in NET buffer (50 mM Tris-HCl pH 7.4, 150 mM NaCl, 5 mM EDTA, 0.05% NP-40), overnight at 4 C; cells after Ca2+ store depletion by thapsigargin (Tg); immunoblot

## Orai1 (from UniProt Q96D31 1-301)
[1]
  binding: binds
[2]
  binding: no binding

## STIM1 (from UniProt Q13586 23-685)
[1]
  binding: binds

## TRPC1 (from UniProt P48995 1-793)
[1]
  binding: binds
[3]
  binding: no binding
[2]
  binding: no binding
[4]
  binding: binds

## caveolin-1 (from UniProt Q03135 1-178)
[4]
  binding: binds
